From article PMC2843631

The chains behind the UniProt entries cited, without tags or fusion partners. Residues count along the entry.
UniProt P10809, residues 27-573: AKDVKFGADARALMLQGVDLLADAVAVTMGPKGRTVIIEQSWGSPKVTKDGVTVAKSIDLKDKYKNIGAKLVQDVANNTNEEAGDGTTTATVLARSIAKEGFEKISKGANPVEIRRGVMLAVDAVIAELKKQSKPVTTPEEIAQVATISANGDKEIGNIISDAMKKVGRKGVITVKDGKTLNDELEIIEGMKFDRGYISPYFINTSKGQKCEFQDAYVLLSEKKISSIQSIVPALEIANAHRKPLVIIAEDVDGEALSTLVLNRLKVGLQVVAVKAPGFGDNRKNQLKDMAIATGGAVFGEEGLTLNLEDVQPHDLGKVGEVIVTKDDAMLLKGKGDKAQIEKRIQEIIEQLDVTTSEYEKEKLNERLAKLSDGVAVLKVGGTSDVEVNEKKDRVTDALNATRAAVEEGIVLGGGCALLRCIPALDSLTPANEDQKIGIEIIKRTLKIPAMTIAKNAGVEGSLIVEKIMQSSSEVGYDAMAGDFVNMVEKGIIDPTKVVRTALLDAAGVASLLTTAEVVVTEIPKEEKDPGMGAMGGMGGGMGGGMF

Biological target: T1, IKKα, endogenous (human (endogenous in HeLa)) (UniProt O15111)
T1 sequence: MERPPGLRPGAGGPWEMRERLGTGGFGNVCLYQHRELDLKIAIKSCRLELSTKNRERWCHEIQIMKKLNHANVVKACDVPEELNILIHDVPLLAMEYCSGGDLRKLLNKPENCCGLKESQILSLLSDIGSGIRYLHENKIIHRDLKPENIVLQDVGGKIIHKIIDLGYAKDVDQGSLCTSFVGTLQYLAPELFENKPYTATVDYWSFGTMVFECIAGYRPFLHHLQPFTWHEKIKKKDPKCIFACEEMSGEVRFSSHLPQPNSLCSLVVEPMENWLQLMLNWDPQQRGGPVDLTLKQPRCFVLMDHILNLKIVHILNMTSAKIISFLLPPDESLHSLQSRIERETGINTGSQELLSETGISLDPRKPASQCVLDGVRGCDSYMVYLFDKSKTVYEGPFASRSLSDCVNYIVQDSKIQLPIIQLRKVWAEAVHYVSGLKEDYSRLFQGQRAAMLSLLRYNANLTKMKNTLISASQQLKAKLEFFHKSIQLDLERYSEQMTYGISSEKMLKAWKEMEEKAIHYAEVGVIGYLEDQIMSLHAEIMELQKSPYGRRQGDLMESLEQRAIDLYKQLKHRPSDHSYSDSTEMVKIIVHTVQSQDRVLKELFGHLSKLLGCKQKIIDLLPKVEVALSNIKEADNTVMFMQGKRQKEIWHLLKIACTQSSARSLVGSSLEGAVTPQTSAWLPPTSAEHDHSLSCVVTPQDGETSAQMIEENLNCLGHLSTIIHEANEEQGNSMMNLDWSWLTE
Assay: affinity purification with mass spectrometry; IKK complex precipitated from lysates of unstimulated HeLa S3 cells with anti-IKKα-conjugated agarose beads (lysis buffer A: 20 mM HEPES pH 7.5, 150 mM NaCl, 1% Triton X-100, 10% glycerol), eluted with 0.1 M glycine pH 2.5, silver-stained bands sequenced by LC-MS/MS

With “heat shock protein 60 (Hsp60), endogenous (from UniProt P10809 27-573)” the binding was “binds”.

Results are given in words; binding and its absence hold for the method and conditions named. In cells and extracts the contact can be indirect. A yes stands for co-enrichment or nearness to the bait. Other partners may have been found.
